Measured values from PMC11477393.
These are yes or no findings as the source states them, for the method shown. Binding seen in cells or lysates may run through a third protein. A yes stands for co-enrichment or nearness to the bait. Other partners may have been found.

The chains behind the UniProt entries cited, without tags or fusion partners.
UniProt Q6PDM2: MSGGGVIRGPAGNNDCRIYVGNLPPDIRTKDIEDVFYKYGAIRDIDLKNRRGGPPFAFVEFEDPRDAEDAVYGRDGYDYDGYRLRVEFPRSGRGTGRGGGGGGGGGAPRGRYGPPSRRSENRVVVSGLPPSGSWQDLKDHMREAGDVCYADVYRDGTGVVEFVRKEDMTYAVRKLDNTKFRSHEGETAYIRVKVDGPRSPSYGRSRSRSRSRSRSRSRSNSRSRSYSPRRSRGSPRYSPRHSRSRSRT
UniProt P09405: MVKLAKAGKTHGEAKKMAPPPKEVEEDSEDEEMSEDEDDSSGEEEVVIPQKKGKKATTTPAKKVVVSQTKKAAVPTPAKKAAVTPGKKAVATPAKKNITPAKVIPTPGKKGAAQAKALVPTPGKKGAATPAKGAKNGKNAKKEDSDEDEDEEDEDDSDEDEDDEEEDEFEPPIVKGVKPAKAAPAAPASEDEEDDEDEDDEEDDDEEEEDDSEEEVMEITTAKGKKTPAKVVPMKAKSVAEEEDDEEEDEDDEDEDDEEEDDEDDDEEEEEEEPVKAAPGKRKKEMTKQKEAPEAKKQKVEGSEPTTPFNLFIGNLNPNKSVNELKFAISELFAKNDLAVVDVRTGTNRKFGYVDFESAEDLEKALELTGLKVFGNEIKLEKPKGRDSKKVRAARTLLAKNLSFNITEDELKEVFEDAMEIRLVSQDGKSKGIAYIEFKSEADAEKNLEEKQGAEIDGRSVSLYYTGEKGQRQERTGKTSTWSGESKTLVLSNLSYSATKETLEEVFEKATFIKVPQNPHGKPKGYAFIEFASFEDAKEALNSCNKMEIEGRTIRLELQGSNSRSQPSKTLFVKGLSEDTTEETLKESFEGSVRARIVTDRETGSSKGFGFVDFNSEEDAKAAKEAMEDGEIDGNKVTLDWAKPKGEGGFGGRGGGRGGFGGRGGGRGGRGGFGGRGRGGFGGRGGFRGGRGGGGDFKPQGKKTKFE

T1: Npac (mouse (endogenous in E14)) (UniProt Q922P9)
T1 sequence: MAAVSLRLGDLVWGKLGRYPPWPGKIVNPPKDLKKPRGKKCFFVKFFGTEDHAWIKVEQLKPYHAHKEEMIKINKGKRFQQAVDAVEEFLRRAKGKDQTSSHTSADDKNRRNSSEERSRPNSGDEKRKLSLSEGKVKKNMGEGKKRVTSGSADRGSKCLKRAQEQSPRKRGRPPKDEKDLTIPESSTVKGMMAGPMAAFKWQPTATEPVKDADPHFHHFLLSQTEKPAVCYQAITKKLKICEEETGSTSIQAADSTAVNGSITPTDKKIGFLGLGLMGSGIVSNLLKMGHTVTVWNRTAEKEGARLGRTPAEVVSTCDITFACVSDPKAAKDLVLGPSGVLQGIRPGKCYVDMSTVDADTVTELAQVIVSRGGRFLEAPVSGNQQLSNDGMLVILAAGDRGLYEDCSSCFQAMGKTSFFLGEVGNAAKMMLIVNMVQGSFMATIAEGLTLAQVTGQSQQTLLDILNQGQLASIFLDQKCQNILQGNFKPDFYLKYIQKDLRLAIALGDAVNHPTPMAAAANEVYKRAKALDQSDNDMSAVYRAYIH


Molecular target: T1, Npac (mouse (endogenous in E14))
Assay: affinity purification with mass spectrometry; affinity purification with a specific anti-Npac antibody from nuclear extracts of E14 cells, nonspecific IgG as negative control, LC-MS/MS

Molecule	binding
Refbp2 (from UniProt Q9JJW6 1-218)	binds
Serine/arginine-rich splicing factor 1 (from UniProt Q6PDM2 1-248)	binds
Nucleolin (from UniProt P09405 1-707)	binds
L1td1 (protein, UniProt Q587J6 1-782) MSGVQSKAARLQKERKEKLSADRERKTATSLCLKHSEVPASMMKQFNALMEMQEVMFAEMRETYKNDIKEMLLKRTAPWVKHLEERIGQQEGDAISERPKPGEKVEELSSGTDEDTENLTVRSKKGKQDKAKPLNSSHVLKSSLERGGEALRGEHGRCGESSSLVDWKNANEKPAREASCQSEENRLKAPKESPPEGGAGATLRLAADFSAATLDVGRQWSQVFRLLKEKELEPELQCSVKLAFKCDGEANVFSDLHSLRQFTSRKPFLRELLKDVFPQNEGGRRNELRERLGKTLGDTKHEARRIASDSLSFLFIKEVEVASPEVKTYKEETLDRKNKGTLKKQEGEEEEISETQGEETSEGETSELGEEEGSESEEEEESSESEEEEESSESAEEIGFISLVVDSESEEEVNRKTASQTKKKETFHGLKELAFSYLVWDSKKKKLVRCQEGGAAAASTQRIGMPCLTLYLTSPSESLGAGSDGPKSHSCTKLSALSQVTPLLTNIEKGRYKVPQTEEPTAKEADLILETEENFKRGVISVIRQMQREVDKIKNIYVSDVLNMKSSLDDLNSLACTIEARVSEQEDAVEGLTKDTMQLAREIVDKERLREREDRFRSSNIRVIGIPEKENRENGAVDIIKEVIEENFAELEDQSLEIVSAHRVPNSVDEHRLTPRHILVKFGSASDKQRVLKASRAKQEITYRGSKIRLTADLSPGTIDARSQWCGIIKILQDEGFQPRILYPAKLAFDFKGKTKIFFDIEEFKKFISDIPYLKDLLNNIH	binds
Sfpq (protein, UniProt Q8VIJ6 1-699) MSRDRFRSRGGGGGGFHRRGGGGGRGGLHDFRSPPPGMGLNQNRGPMGPGPGGPKPPLPPPPPHQQQQQPPPQQPPPQQPPPHQQPPPHQPPHQQPPPPPQESKPVVPQGPGSAPGVSSAPPPAVSAPPANPPTTGAPPGPGPTPTPPPAVPSTAPGPPPPSTPSSGVSTTPPQTGGPPPPPAGGAGPGPKPGPGPGGPKGGKMPGGPKPGGGPGMGAPGGHPKPPHRGGGEPRGGRQHHAPYHQQHHQGPPPGGPGPRTEEKISDSEGFKANLSLLRRPGEKTYTQRCRLFVGNLPADITEDEFKRLFAKYGEPGEVFINKGKGFGFIKLESRALAEIAKAELDDTPMRGRQLRVRFATHAAALSVRNLSPYVSNELLEEAFSQFGPIERAVVIVDDRGRSTGKGIVEFASKPAARKAFERCSEGVFLLTTTPRPVIVEPLEQLDDEDGLPEKLAQKNPMYQKERETPPRFAQHGTFEYEYSQRWKSLDEMEKQQREQVEKNMKDAKDKLESEMEDAYHEHQANLLRQDLMRRQEELRRMEELHSQEMQKRKEMQLRQEEERRRREEEMMIRQREMEEQMRRQREESYSRMGYMDPRERDMRMGGGGTMNMGDPYGSGGQKFPPLGGGGGIGYEANPGVPPATMSGSMMGSDMRTERFGQGGAGPVGGQGPRGMGPGTPAGYGRGREEYEGPNKKPRF	binds
